Assay results as given in PMC9848475.
These are yes or no findings as the source states them, for the method shown. In cells and extracts the contact can be indirect. Binding calls can cover weak binding; strength is not graded here. For some assays here: Sequences can lack the tags named with a protein.

Legend:
[1] = target: Irgb10 fused to a fragment of TEM-1 β-lactamase (mouse); experiment: split reporter; protein-fragment complementation assay of Irgb10 fused to different Bla fragments in HEK293T, in absence and presence of co-transfected ROP39 (wt or D/N) not fused to any Bla fragment; nitrocefin hydrolysis, absorbance at 495 nm
[2] = target: Irgb10 fused to a fragment of TEM-1 β-lactamase (mouse); experiment: split reporter; protein-fragment complementation assay with split TEM-1 β-lactamase (BlaN, BlaC fusions) co-transfected in HEK293T; nitrocefin hydrolysis in lysates, absorbance at 495 nm

Row | Binder | binding [1] | binding [2]
1 | kinase dead ROP39 (ROP39D/N) used as inhibitor of Irgb10 dimerisation (protein, UniProt S8F1L0 1-588) MSKPFFPQVWVSCTGGVLNLRRHWLRVGNMSRAFAPTVLFVLLNVGGSLWVPRTLPVSAFQDAVAPHHPCIGRPCDQVASVVAVPPANNLGFKREPSVGSPGHFSFLQAVGGVGGPPYAGDGSPLLASRLDWQFLQQWHTDEDENARDGFVAALSRVTRLSQILEDCNMEMVLLLDRVFSRSPRITLSAVEPRTHRRRTLKLKIRSVAGTGGYNIVVKAFVIKSWFFRLGHWLGSLGRQRNTARAPGGETGQQTGTSGRRSSRSRGQSGREEGRREPQMVSLRIRVGGAPDCQVANEMQAAEVVQKCVSEADRIMHVFPEDVTPDVLVSRFRFAVPLYSGRIRHRSALLGQSRGYALLNYMDVLPPMLCDLFAAQSVVQPSMTRAIAKQLLELVAHLQALGVVHSNLKPENVLVDEAGNLFLADFDKAHKVGSRVRCSSLPHSLFADPQTVICRETTPDQEVTLAFSQDAWALGMLMYDTFCRNWPFMGMDYNNDSDTSNTIVLAGLLDRAAAVDTRAPIDWIGCDNPRVESEIKDLISRLLDIDPENRLDVLSFYMHSDFFNEGRNEANRSPPQRGAPILPLRESIV | binds | –
2 | kinase dead ROP39 (ROP39D/N) fused to a fragment of TEM-1 β-lactamase (protein, UniProt S8F1L0 1-588) MSKPFFPQVWVSCTGGVLNLRRHWLRVGNMSRAFAPTVLFVLLNVGGSLWVPRTLPVSAFQDAVAPHHPCIGRPCDQVASVVAVPPANNLGFKREPSVGSPGHFSFLQAVGGVGGPPYAGDGSPLLASRLDWQFLQQWHTDEDENARDGFVAALSRVTRLSQILEDCNMEMVLLLDRVFSRSPRITLSAVEPRTHRRRTLKLKIRSVAGTGGYNIVVKAFVIKSWFFRLGHWLGSLGRQRNTARAPGGETGQQTGTSGRRSSRSRGQSGREEGRREPQMVSLRIRVGGAPDCQVANEMQAAEVVQKCVSEADRIMHVFPEDVTPDVLVSRFRFAVPLYSGRIRHRSALLGQSRGYALLNYMDVLPPMLCDLFAAQSVVQPSMTRAIAKQLLELVAHLQALGVVHSNLKPENVLVDEAGNLFLADFDKAHKVGSRVRCSSLPHSLFADPQTVICRETTPDQEVTLAFSQDAWALGMLMYDTFCRNWPFMGMDYNNDSDTSNTIVLAGLLDRAAAVDTRAPIDWIGCDNPRVESEIKDLISRLLDIDPENRLDVLSFYMHSDFFNEGRNEANRSPPQRGAPILPLRESIV | – | binds
